# Data taken from patent publication US20230040928A1 (INSERM INSTITUT NATIONAL DE LA SANTE ET DE LA RECHERCHE …, published 2023).
# Where a chain is given by its changes, count along the chain named. No constants are given. Whether binding was seen depends on the method and setting. Some entries that bind do so weakly or less than the wild type. For part of these data: Sequences can lack the tags named with a protein.
# T1: mouse HER4-Fc (mouse) (UniProt Q61527)
# T1 sequence (looked up): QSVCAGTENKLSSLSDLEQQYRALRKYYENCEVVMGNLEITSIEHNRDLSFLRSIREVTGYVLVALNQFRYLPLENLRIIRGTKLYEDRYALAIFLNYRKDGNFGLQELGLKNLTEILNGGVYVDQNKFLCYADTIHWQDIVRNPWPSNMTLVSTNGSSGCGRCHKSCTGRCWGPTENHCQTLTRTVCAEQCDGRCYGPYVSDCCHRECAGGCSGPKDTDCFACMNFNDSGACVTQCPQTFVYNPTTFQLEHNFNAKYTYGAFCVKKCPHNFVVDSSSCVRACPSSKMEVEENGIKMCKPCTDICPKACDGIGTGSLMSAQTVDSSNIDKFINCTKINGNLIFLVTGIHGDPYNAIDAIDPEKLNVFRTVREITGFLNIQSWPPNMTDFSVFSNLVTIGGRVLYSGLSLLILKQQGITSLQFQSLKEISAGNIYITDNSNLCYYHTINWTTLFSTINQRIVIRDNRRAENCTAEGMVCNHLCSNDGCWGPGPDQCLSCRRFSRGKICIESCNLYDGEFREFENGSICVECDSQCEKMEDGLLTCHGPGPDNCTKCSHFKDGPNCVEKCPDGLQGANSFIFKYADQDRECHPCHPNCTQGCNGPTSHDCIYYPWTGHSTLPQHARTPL
# B1: C6 mAb (antibody, V domains shown)
# VH: EVQLVESGGSLVKPGGSLRLSCAASGFTFSNYYMNWVRQAPGKGLEWISSISGSSRYIDYADFVKGRFTISRDNATNSLYLQMNSLRAEDTAVYYCVRSSSDYFGGGMDVWGRGTLVTVSS
# VL: QSVLTQPASVSGSPGQSITISCAGTSSDVGGSYYVSWYQQHPGKAPKLMIYYDSYRPSGVSNRFSGSKSGNTASLTISGLQAEDEADYYCSSSTYNSTRVFGGGTKLAVLG
# notes: also called antibody C6; Ab C6
# B2: H2 mAb (antibody, V domains shown)
# VH: B1 VH with Y32N, Y33D, S50D, S52N, D59Y, S101D
# VL: B1 VL with S32Y, Y34S, Y52N, N96Y
# notes: also called antibody H2
# B3: D5 mAb (antibody, V domains shown)
# VH: B1 VH with S52D
# VL: B1 VL with Y33S, S93N, N96Y
# notes: also called antibody D5; anti-HER4 antibody D5
# B4: F4 mAb (antibody, V domains shown)
# VH: B1 VH with Y32N, Y33D, D59N, S101D
# VL: B1 VL with S32Y, Y33S, Y34G, Y52N, S93Y, Y95N
# notes: also called antibody F4
# Biological target: HER4 on C33A cervix carcinoma cells (human) (UniProt Q15303)
# Test: flow cytometry on C-33A cells in presence of NRG1
row,binding,Binder
1,binds,B1
2,binds,B2
3,binds,B3
4,binds,B4

# Biological target: HER4 on C33A cervix carcinoma cells (human) (UniProt Q15303)
# Test: flow cytometry, 15 µg/ml antibody on C33A cells
row,binding,Binder
1,binds,B1
2,binds,B2
3,binds,B3
4,binds,B4

# Biological target: T1, mouse HER4-Fc (mouse)
# Test: ELISA, mouse HER4-Fc coated, IgG in solution
row,binding,Binder
1,binds,B1
2,binds,B2
3,binds,B3
4,binds,B4
